# According to US10307451B2, “Phytoestrogen product of red clover and pharmaceutical uses thereof” (Sinoveda Canada Inc., priority 2010, dated 2019):
# Some results were stated once for a whole list of compounds, not compound by compound.
# Test system: human intestinal microflora
# Experiment: Biotransformation by human intestinal bacteria (fecal microflora incubation)
# Type: in vitro ADME
# Conditions: 100 μM, anaerobic, 37° C., end of 120 hours
# Method: Fresh human fecal samples were collected from 4 volunteers. Five grams of each were pooled together and mixed well with 30 mL BHI culture medium. The fecal suspension was centrifuged at 200 g for 5 min and supernatant was decanted and centrifuged at 5,000 g for another 30 min. The resultant precipitate was re-suspended with 10 mL BHI medium to produce intestinal micro flora solution.
# As the biotransformation of drugs by human intestinal bacteria was determined in a 5 mL incubation system containing 250 μL intestinal microflora solution, 50 μL stock solution in DMSO in BHI medium. […] Zero-minute incubations served as controls. Reactions were stopped by extracting samples with 15 ml of ethanol twice. The two ethanol extractions were combined, dried and re-suspended in 80% methanol for HPLC/MS analysis.
structure (smiles),measurement,value
O=c1c(-c2ccc(O)cc2)coc2cc(O)ccc12 [Daidzein],isoflavone left in the incubation media,less than 5%
